Results published in PubChem BioAssay AID2685 (National Center for Advancing Translational Sciences (NCATS), 2010).
The whole screen tested about 320,000 compounds, of which about 2,100 (0.66%) were called active. Inconclusive means that the source gave no clear call. Such entries were picked first, then a sample of the others. The call rests on the fitted dose curve; in most records, active means well fitted inhibition curve with a large enough effect in the signal ratio, with a control signal flat (not every such curve was filed as active); inconclusive means small, poorly fitted or top-dose-only effect, or effect the other way, or a change in a side signal; inactive means flat fitted curve, though single readings scatter; the % refers to the signal ratio. Potencies beside an inconclusive call are fits to weak or partial responses and may not hold up.

Test: qHTS Assay for Lipid Storage Modulators in Drosophila S3 Cells
Conditions: BODIPY lipid droplet fluorescence, 18-24 h, cells fed with added oleic acid; lipid storage change, negative = inhibition: at 46.1 µM (top of the series) unless noted
Procedure, shortened: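 Drosophila S3 cells loaded with oleic acid (400 uM, as added) and compounds at several concentrations; lipid droplets imaged by 488-nm laser-scanning cytometry, 500–530 nm intensity and object ratio to cell channel. Percent activity normalized to 20 uM Triacsin C.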
On the % scale 0 is the no-effect control and ±100 the full control effect; potency means the concentration at half of the fitted maximal effect.

SMILES	lipid storage change, negative = inhibition	Potency
CNC(=O)c1nnn(Cc2ccccc2)c1NC(=O)C(F)(F)F	inconclusive: 16.9%	–
N#C/C(C(=O)NCCc1ccccc1)=C1/N=C(NC(=O)c2cccs2)c2ccccc21	inconclusive: 19.3%	–
COc1ccc2cc(/C=C/C(=O)N3CCN(CC(=O)N4CCCCCC4)CC3)ccc2c1	inconclusive: -147%	–
O=C1NC(Cc2ccccc2)c2nc3ccc(Cl)cc3c(=O)n2-c2cc(Cl)ccc21 (stereo not drawn)	inconclusive: -52.5%	–
COc1ccc(NS(=O)(=O)c2cccc(C(=O)NNC(=O)NCCCl)c2)cc1	inconclusive: 6.06%	–
CS(=O)(=O)c1ccc2nc(NC(=O)CC3CCCC3)sc2c1	inconclusive: -12.1%	–
CC1(C)CC(=O)c2c(O)cc(OCC(=O)Nc3ccc(CCO)cc3)cc2O1	inconclusive: -82.4%	–
Cc1ncoc1C(=O)N1CCCC(C(=O)Nc2cccc(-c3ccc(F)cc3)c2)C1 (stereo not drawn)	inconclusive: -50%	–
O=C(NC1CCN(S(=O)(=O)c2ccccc2)CC1)c1ccccc1	inconclusive: 28.1%	–
Cc1cc(NC(=O)Nc2ccccc2[N+](=O)[O-])no1	inconclusive: -44.8%	–
Cc1cc(C(=O)COC(=O)c2ccc(O)cc2)c(C)n1CC1CCCO1 (stereo not drawn)	inconclusive: 7.28%	–
[O-][N+]1=c2ccc(Nc3ccccc3)cc2=NC12CCCCC2	inconclusive: 63.8%	–
CCc1cc2c(=O)n(Cc3ccco3)c(SCC(=O)NCC3CCCO3)nc2s1 (stereo not drawn)	–	inconclusive: 1.3 µM [activator, full curve]
Cc1noc(C)c1COc1ccc(C(=O)Nc2cccnc2)cc1	inconclusive: 41%	–
CCOC(=O)C1=C(C)N(C)C(=S)NC1c1cc(OC)ccc1OC (stereo not drawn)	inconclusive: 7.09%	–
COc1ccc([N+](=O)[O-])cc1C(=O)NCCOc1ccc(Cl)cc1	inconclusive: 17.2%	–
COc1cc(CCC(=O)Nc2ccc(C)c(S(=O)(=O)N(C)C)c2)cc(OC)c1OC	inconclusive: -12%	–
CC(C)Cn1c(/C=C/c2ccco2)nc2ccccc21	inconclusive: -46.5%	–
O=C(CCCNC(=O)c1ccc(Cl)cc1)Nc1ccc(F)c(S(=O)(=O)N2CCOCC2)c1	inconclusive: -52.2%	–
Fc1ccc(NC(=S)Nc2nccs2)cc1	inconclusive: -13.1%	–
O=C(Nc1ccccc1N1CCOCC1)c1cccc(S(=O)(=O)Nc2ccccc2F)c1	–	inconclusive: 29.1 µM [falling, single point]
CCOC(=O)N1CCN(C(=O)c2ccccc2NC(=O)COc2ccccc2)CC1	–	inconclusive: 13 µM [falling, partial curve]
O=C(CCCCCn1nnc2ccccc2c1=O)N[C@H](C(=O)O)c1ccccc1	inconclusive: -16.8%	–
CCCCCCCCNC1=CC(=O)CC(C)(C)C1	inconclusive: -5.07%	–
C/C(=N\OC(=O)c1ccc(Br)cc1)c1ccccn1	inconclusive: 194%	–
CC1(C)CC(=O)C2=C(C1)N(c1ccccc1)C(N)=C(C#N)C2c1cccnc1 (stereo not drawn)	inconclusive: 13.8%	–

A second format for six compounds above:
SMILES,"lipid storage change, negative = inhibition",Potency
COc1cc(CCC(=O)Nc2ccc(C)c(S(=O)(=O)N(C)C)c2)cc(OC)c1OC,inconclusive: -12%,–
CC(C)Cn1c(/C=C/c2ccco2)nc2ccccc21,inconclusive: -46.5%,–
O=C(CCCNC(=O)c1ccc(Cl)cc1)Nc1ccc(F)c(S(=O)(=O)N2CCOCC2)c1,inconclusive: -52.2%,–
Fc1ccc(NC(=S)Nc2nccs2)cc1,inconclusive: -13.1%,–
O=C(Nc1ccccc1N1CCOCC1)c1cccc(S(=O)(=O)Nc2ccccc2F)c1,–,"inconclusive: 29.1 µM [falling, single point]"
CCOC(=O)N1CCN(C(=O)c2ccccc2NC(=O)COc2ccccc2)CC1,–,"inconclusive: 13 µM [falling, partial curve]"

Later entries

SMILES	lipid storage change, negative = inhibition	Potency
COc1ccc(/C=N/Nc2nnc(Cc3ccc(OC)c(OC)c3)c(=O)[nH]2)cc1OC	inconclusive: 16.1%	–
CC(=O)Nc1ccc(C)c([N+](=O)[O-])c1	inconclusive: 18.2%	–
O=c1c2ccccc2nc(SCc2nnc(-c3ccccc3)o2)n1-c1ccc(F)cc1F	–	inconclusive: 0.326 µM [activator, partial curve, poor fit]
O=C(NCC(c1ccc(F)cc1)N1CCOCC1)c1cccnc1Sc1ccccc1 (stereo not drawn)	inconclusive	–
O=C(N/N=C/c1cccnc1)c1ccc(NC(=O)c2ccc(Cl)cc2)cc1	–	active: 0.13 µM
COc1cc(NC(=O)N[C@@H](Cc2c[nH]c3ccccc23)C(=O)O)c(C(=O)O)cc1OC	inconclusive: 24.9%	–
Cc1cc(-n2nc(C)cc2C)nc(N)n1	inconclusive: -23%	–
CCOc1ccc(NC(=O)C2CCCN(c3cnccn3)C2)cc1 (stereo not drawn)	inconclusive: 11.7%	–
O=c1c(NCCc2ccc(Cl)cc2)c(-c2ccccc2)c1=O	inconclusive: -36.8%	–
Cc1cc(C(F)(F)F)c(C#N)c(SCC(=O)Nc2nc3cc(Br)ccc3s2)n1	–	inconclusive: 0.164 µM [falling, full curve]
CCc1nnc(NC(=O)c2ccc3ccccc3n2)s1	inconclusive: 4.39%	–
CCOc1cccc(C(=O)N(Cc2cccc(F)c2)C2CCS(=O)(=O)C2)c1 (stereo not drawn)	–	inconclusive: 9.2 µM [falling, partial curve]
COc1cccc(C2C(C(=O)/C=C/c3ccco3)=C(O)C(=O)N2CCN2CCOCC2)c1 (stereo not drawn)	–	inconclusive: 6.51 µM [falling, single point]
CN(C)C(CNC(=O)c1ccc(S(=O)(=O)Nc2ccccc2F)cc1)c1ccco1 (stereo not drawn)	–	inconclusive: 4.61 µM [falling, single point]
CCOC(=O)CC(=O)CSc1nc(N)c(C#N)c(-c2ccc(Cl)cc2)c1C#N	inconclusive: 17.5%	–
Cc1onc(-c2ccccc2Cl)c1C(=O)N(Cc1ccccc1)C(C)C	–	inconclusive: 29.1 µM [falling, single point]
O=C(OCc1c(-c2ccccc2)ncc2ccccc12)c1ccc(Cl)cc1Cl	–	inconclusive: 29.1 µM [activator, partial curve, poor fit]
CN(C)c1ccccc1C(=O)N1CCC(n2nccc2NC(=O)C2CC2)CC1	inconclusive: -136%	–
CC(C)CN(C(=O)CN1CCN(c2ccccc2F)CC1)c1c(N)n(CC(C)C)c(=O)[nH]c1=O	inconclusive: -11.7%	–
Clc1ccc(CSc2nnc(CN3CCOCC3)n2-c2ccccc2)cc1Cl	inconclusive: 199%	–
CCn1cc(/C=C(\NC(=O)c2ccccc2Cl)C(=O)N2CCOCC2)c2ccccc21	–	inconclusive: 14.6 µM [falling, partial curve]
COC(=O)CN(c1nc(C)c(Br)c(OC)n1)S(=O)(=O)c1ccc(C)cc1	inconclusive: 67.2%	–
COc1ccccc1C(=O)Nc1ccnn1C1CCN(CCC(C)c2ccc(C)o2)CC1 (stereo not drawn)	inconclusive: -12.9%	–
COc1ccc(C(c2nnnn2C(C)C)N2CCN(C(=O)c3ccco3)CC2)cc1 (stereo not drawn)	–	active: 0.0259 µM
COC(=O)c1ccc(Sc2ccc(Cl)cc2)c(N)c1	inconclusive: -1.48%	–
Cc1c(OCC(=O)NCc2ccccn2)ccc2c3c(c(=O)oc12)CCCC3	–	inconclusive: 6.51 µM [falling, single point]

SMILES	lipid storage change, negative = inhibition	Potency
O=C(NC1CCCC1)c1ccc(Br)c(S(=O)(=O)N2CCCCC2)c1	–	inconclusive: 18.4 µM [activator, single point]
COc1ccc(S(=O)(=O)N2CCN(C(=O)CNC(=O)c3ccc4c(c3)OCO4)CC2)cc1	inconclusive	–
CC(O)Cc1cn(CC(=O)N2CCNCC2)nn1 (stereo not drawn)	inconclusive: -2.62%	–
CCOc1ncccc1C(=O)Nc1cccc(-c2nnc3n2CCCCC3)c1	–	inconclusive: 6.51 µM [cytotoxic, single point]
O=C(NC(NCc1ccccn1)(C(F)(F)F)C(F)(F)F)c1ccco1	inconclusive: 4.65%	–
O=C(CN1C(=O)NC2(CCCCC2)C1=O)N1CCN(S(=O)(=O)c2cccc(F)c2)CC1	–	inconclusive: 25.9 µM [activator, single point]
Cc1cccc2sc(NNC(=O)c3cc(-c4cccs4)nc4ccccc34)nc12	inconclusive: 9.18%	–
O=C(NCC1CCCCC1)c1cccc(-c2ccc(O)cc2)c1	–	inconclusive: 0.461 µM [activator, full curve]
Cc1noc(C)c1S(=O)(=O)NCc1cccc(Cl)c1	inconclusive: -21.6%	–
Cc1ccccc1N(CC(=O)NC(C)(C)C)C(=O)c1ccc(-c2ccccc2)[nH]1	inconclusive: -17.3%	–
CCc1ccc(NC(=O)CCn2c(=O)oc3ccccc32)cc1	inconclusive: 18.4%	–
CCN(C(=O)COC(=O)c1[nH]c(=O)[nH]c(=O)c1N)c1ccccc1	–	inconclusive: 5.17 µM [falling, full curve]
CCOC(=O)c1c(C)[nH]c(C(=O)CSc2nnnn2-c2ccc(C)cc2)c1C	inconclusive: 49.6%	–
CC(=O)NC(CC(=O)OCc1ccc([N+](=O)[O-])cc1)c1ccccc1 (stereo not drawn)	inconclusive: -5.45%	–
O=S(=O)(NCc1ccc2c(c1)OCO2)c1ccc2c(c1)oc1ccccc12	inconclusive: 22.5%	–
COc1ccc(S(=O)(=O)Nc2ccc3c(c2)OCCO3)cc1Cl	inconclusive: -59.6%	–
COC(=O)CCCCC1SCC2NC(=O)NC21O (stereo not drawn)	inconclusive: -40.2%	–
CCOCCn1c(=O)c2c(nc3n2CCCN3CCc2ccccc2)n(C)c1=O	inconclusive: -100%	–
CC(=O)Nc1ccc(S(=O)(=O)N2CCN(c3cc(C)nc4ncnn34)CC2)cc1	inconclusive: -17%	–
Cn1c(SCC(=O)Nc2ccc(Cl)cc2F)nnc1-c1ccco1	–	active: 23.1 µM
CCC(Oc1ccccc1)C(=O)Nc1ccccc1N1CCCC1 (stereo not drawn)	–	inconclusive: 14.1 µM [activator, partial curve]
CC(=O)c1csc(CS(=O)(=O)c2ccccn2)n1	inconclusive: -11%	–
Cc1c(C(=O)NCC2CCCO2)oc2ccc(S(=O)(=O)N3CCCCC3)cc12 (stereo not drawn)	inconclusive: 21.7%	–
O=C(Nc1cccc(S(=O)(=O)NC2=NCCCCC2)c1)c1cc(-c2ccc(Cl)cc2)nc2ccccc12	inconclusive: 24.8%	–
O=C(N[C@@H](Cc1ccccc1)C(=O)N1CCC2(CC1)NCCc1[nH]cnc12)c1cccc(F)c1	inconclusive: 16.3%	–
COc1ccc(NC(=S)NC(C)c2ccncc2)cc1OC (stereo not drawn)	inconclusive: 16%	–
